At least one peptide structure holds a part that was inferred or is arguable (an end, a ring closure or a residue). Where a SMILES comes first, the peptide text is derived from it. Bridges are numbered along the chain shown (N, C = ends). Where no end group is shown, it is not given here. [ ]: non-standard residue; d: D form.
How the values were obtained:
[1] = tested on: platelet aggregation induced by collagen; experiment: Platelet aggregation induced by collagen; assay type: cell-based, human; conditions: 800 μM antagonist; collagen 76 μg/ml; FIG. 3
[2] = tested on: ADP-induced platelet aggregation; experiment: Platelet aggregation induced by ADP; assay type: cell-based, human; conditions: 800 μM antagonist; ADP 4 μM; fibrinogen 1 mg/ml added; FIG. 3
[3] = tested on: platelet aggregation induced by the tethered ligand peptide; experiment: Platelet aggregation induced by the tethered ligand peptide; assay type: cell-based, human; conditions: 800 μM antagonist; tethered ligand 5 μM; FIG. 2
[4] = tested on: Human umbilical vein endothelial cells (HUVECs); experiment: Thrombin-induced PMN adhesion to HUVEC monolayer (fluorescence); assay type: cell-based; conditions: pre-incubation with 0-1 mM TRAP-1 for 10-30 minutes; thrombin 0-1 U/ml
[5] = tested on: thrombin-induced platelet aggregation; experiment: Thrombin-induced platelet aggregation assay with gel-filtered platelets; assay type: cell-based, human; conditions: for Estimated IC50 (concentration of TRAP at which 50% inhibition of platelet aggregation was achieved) / decrease in inhibitory potency resulting from cyclization: thrombin 0.06 U/ml; for Estimated IC50 (concentration of TRAP at which 50% inhibition of platelet aggregation was achieved): antagonist 0-1 mM; for decrease in inhibitory potency resulting from cyclization: cyclized versus linear form

Row | Compound | Estimated IC50 (concentration of TRAP at which 50% inhibition of platelet aggregation was achieved) [5] [µM] | decrease in inhibitory potency resulting from cyclization [5] [fold] | other results
1 | LVRIGKHSRTRYERNIE [TRAP-1, Leu-Val-Arg-Ile-Gly-Lys-His-Ser-Arg-Thr-Arg-Tyr-Glu-Arg-Asn-Ile-Glu] | 300 |  | effect on platelets induced by collagen [1]: no effect; effect on platelets induced by ADP [2]: no effect; inhibitory effect on platelet aggregation induced by the tethered ligand peptide [3]: no inhibitory effect; mean fluorescence (proportional to PMNs adhering to the HUVEC monolayer) versus thrombin-only control wells [4]: reduces the mean fluorescence; inhibition of thrombin-induced aggregation (in words) ([5]; 800 μM antagonist): fully inhibited; inhibition of thrombin-induced platelet aggregation ([5]; 800 μM antagonist, all concentrations of thrombin tested (0.16-0.48 U/ml)): > 80%; inhibition of thrombin-induced platelet aggregation (in words, FIG. 1) ([5]; varying antagonist concentrations (0-1 mM), varying thrombin concentrations): dose-dependent manner
2 | CC[C@H](C)[C@H](NC(=O)[C@H](CCCCN)NC(=O)[C@H](CCC(=O)O)NC(=O)[C@H](CS)NC(=O)[C@H](CC(N)=O)NC(=O)[C@H](CCCNC(=N)N)NC(=O)[C@H](CCC(=O)O)NC(=O)[C@H](Cc1ccc(O)cc1)NC(=O)[C@H](CCCNC(=N)N)NC(=O)[C@@H](NC(=O)[C@H](CCCNC(=N)N)NC(=O)[C@H](CO)NC(=O)[C@H](Cc1c[nH]cn1)NC(=O)[C@H](CCCCN)NC(=O)CNC(=O)[C@@H](CS)NC(=O)[C@H](CCCNC(=N)N)NC(=O)[C@@H](NC(=O)[C@@H](N)CC(C)C)C(C)C)[C@@H](C)O)C(=O)O [TRAP-4 (linear), Leu-Val-Arg-(D-Cys)-Gly-Lys-His-Ser-Arg-Thr-Arg-Tyr-Glu-Arg-Asn-Cys-Glu-Lys-Ile] (H-LVR[dC]GKHSRTRYERNCEKI-OH) | 8 |  | 
3 | CC[C@H](C)[C@H](NC(=O)[C@H](CCCCN)NC(=O)[C@H](CCC(=O)O)NC(=O)[C@H]1CSSC[C@@H](NC(=O)[C@H](CCCNC(=N)N)NC(=O)[C@@H](NC(=O)[C@@H](N)CC(C)C)C(C)C)C(=O)NCC(=O)N[C@@H](CCCCN)C(=O)N[C@@H](Cc2c[nH]cn2)C(=O)N[C@@H](CO)C(=O)N[C@@H](CCCNC(=N)N)C(=O)N[C@@H]([C@@H](C)O)C(=O)N[C@@H](CCCNC(=N)N)C(=O)N[C@@H](Cc2ccc(O)cc2)C(=O)N[C@@H](CCC(=O)O)C(=O)N[C@@H](CCCNC(=N)N)C(=O)N[C@@H](CC(N)=O)C(=O)N1)C(=O)O [TRAP-5 (cyclized), Leu-Val-Arg-(D-Cys)-Gly-Lys-His-Ser-Arg-Thr-Arg-Tyr-Glu-Arg-Asn-(D-Cys)-Glu-Lys-Ile] (H-LVR[dC]GKHSRTRYERN[dC]EKI-OH; disulfide 4-16) | 150 | 7.5 | 
4 | CC[C@H](C)[C@H](NC(=O)[C@H](CCCCN)NC(=O)[C@H](CCC(=O)O)NC(=O)[C@@H](CS)NC(=O)[C@H](CC(N)=O)NC(=O)[C@H](CCCNC(=N)N)NC(=O)[C@H](CCC(=O)O)NC(=O)[C@H](Cc1ccc(O)cc1)NC(=O)[C@H](CCCNC(=N)N)NC(=O)[C@@H](NC(=O)[C@H](CCCNC(=N)N)NC(=O)[C@H](CO)NC(=O)[C@H](Cc1c[nH]cn1)NC(=O)[C@H](CCCCN)NC(=O)CNC(=O)[C@@H](CS)NC(=O)[C@H](CCCNC(=N)N)NC(=O)[C@@H](NC(=O)[C@@H](N)CC(C)C)C(C)C)[C@@H](C)O)C(=O)O [TRAP-5 (linear), Leu-Val-Arg-(D-Cys)-Gly-Lys-His-Ser-Arg-Thr-Arg-Tyr-Glu-Arg-Asn-(D-Cys)-Glu-Lys-Ile] (H-LVR[dC]GKHSRTRYERN[dC]EKI-OH) | 20 |  | 
5 | CC[C@H](C)[C@H](NC(=O)[C@H](CCCCN)NC(=O)[C@H](CCC(=O)O)NC(=O)[C@@H]1CSSC[C@@H](NC(=O)[C@H](CCCNC(=N)N)NC(=O)[C@@H](NC(=O)[C@@H](N)CC(C)C)C(C)C)C(=O)NCC(=O)N[C@@H](CCCCN)C(=O)N[C@@H](Cc2c[nH]cn2)C(=O)N[C@@H](CO)C(=O)N[C@@H](CCCNC(=N)N)C(=O)N[C@@H]([C@@H](C)O)C(=O)N[C@@H](CCCNC(=N)N)C(=O)N[C@@H](Cc2ccc(O)cc2)C(=O)N[C@@H](CCC(=O)O)C(=O)N[C@@H](CCCNC(=N)N)C(=O)N[C@@H](CC(N)=O)C(=O)N1)C(=O)O [TRAP-4 (cyclized), Leu-Val-Arg-(D-Cys)-Gly-Lys-His-Ser-Arg-Thr-Arg-Tyr-Glu-Arg-Asn-Cys-Glu-Lys-Ile] (H-LVR[dC]GKHSRTRYERNCEKI-OH; disulfide 4-16) | 200 | 25 | 

From patent US5446131A, “Thrombin receptor antagonists” (Biogen, Inc., priority 1994, dated 1995)
